US20240076386A1
Substitutions are numbered along the chain they refer to. Results are given in words; binding and its absence hold for the method and conditions named. Some binding calls cover weakened binding; strength is not graded here. One block for each binder: values may come before it.

Experiments:
[1] = target: T1, human E-selectin coated on the plate of the competition binding ELISA (human) (UniProt P16581); experiment: competition binding ELISA against biotinylated 0164
T1 sequence (looked up): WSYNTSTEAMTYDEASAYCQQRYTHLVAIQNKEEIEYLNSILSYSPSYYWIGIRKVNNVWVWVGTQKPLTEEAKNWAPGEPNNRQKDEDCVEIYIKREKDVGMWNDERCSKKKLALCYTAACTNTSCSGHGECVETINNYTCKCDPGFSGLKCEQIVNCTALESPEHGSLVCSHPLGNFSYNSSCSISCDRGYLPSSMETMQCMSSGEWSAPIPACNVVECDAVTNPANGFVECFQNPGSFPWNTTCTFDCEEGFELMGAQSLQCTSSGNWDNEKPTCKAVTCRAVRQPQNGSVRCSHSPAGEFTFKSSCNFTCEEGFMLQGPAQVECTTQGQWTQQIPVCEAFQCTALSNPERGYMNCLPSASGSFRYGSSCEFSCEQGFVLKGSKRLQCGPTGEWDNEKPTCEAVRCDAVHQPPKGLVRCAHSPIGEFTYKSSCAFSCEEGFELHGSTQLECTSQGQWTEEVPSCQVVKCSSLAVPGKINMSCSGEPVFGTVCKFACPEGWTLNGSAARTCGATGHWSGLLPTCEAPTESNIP

[2] = target: T1, human E-selectin coated on the plate of the competition binding ELISA (human); experiment: competition ELISA on plate-coated human E-selectin; competitor: biotinylated antibody 0164, streptavidin-HRP, OD450; samples stored 0, 2, 4 weeks at 40 C in Tris, His or Glu buffer
[3] = target: T1, human E-selectin coated on the plate of the competition binding ELISA (human); experiment: competition ELISA (Biotin-164 competitive ELISA) on plate-coated human E-selectin; competitor: biotinylated antibody 0164, OD450; forced degradation samples T0, T2, T4 weeks at 40 C in Tris, His or Glu buffer

binding [1]: binds | binding [2]: binds
B1: humanized anti-E-selectin antibody 0841 (antibody, human IgG1, kappa, V domains shown)
VH: EVQLVESGGGLVQPGGSLRLSCAASGYNIRSSYMHWVRQAPGKGLEWVARIDPANGNTIYAEKFKIRFTISADNAKNSAYLQMNSLRAEDTAVYYCAMDLYSTSEYWGQGTLVTVSS
VL: DIQMTQSPSSLSASVGDRVTITCKTSQNINRYLNWYQQKPGKAPKLLIYNANSLQTGVPSRFSGSGSGTDFTLTISSLQPEDFATYFCLQDNSWPLTFGQGTKVEIKR

binding [1]: binds | binding [3]: binds
B2: optimized anti-E-selectin antibody 1284 (antibody, human IgG1, kappa, V domains shown)
VH: B1 VH with N28A, S32A, A61V, K63S, F64V, K65E, I66G
VL: B1 VL with N30E, N50A, N52S, T56S, S93A

binding [1]: binds | binding [3]: binds
B3: optimized anti-E-selectin antibody 1444 (antibody, human IgG1, kappa, V domains shown)
VH: B1 VH with N28A, S32A, A61V, E62D, K63S, F64V, K65T, I66G
VL: B1 VL with N30E, N50A, N52S, T56S, S93A

binding [1]: binds | binding [3]: binds
B4: optimized anti-E-selectin antibody 1448 (antibody, human IgG1, kappa, V domains shown)
VH: B1 VH with N28A, S32A, A61V, E62D, K63S, F64V, I66E
VL: B1 VL with N30E, N50A, N52S, T56S, S93A

binding [1]: binds | binding [3]: binds
B5: optimized anti-E-selectin antibody 1282 (antibody, human IgG1, kappa, V domains shown)
VH: B1 VH with N28A, S32A, A61V, E62D, K63S, F64V, K65E, I66G
VL: B1 VL with N30E, N50A, N52S, T56S, S93A

binding [1]: binds
B6: humanized anti-E-selectin antibody 0978 (antibody, human IgG1, kappa, V domains shown)
VH: B1 VH with A61V, E62D, K63S, F64V, I66G
VL: B1 VL with N50A, N52S, T56S
